The assay deals with 3×HA-tagged ORFV ORF047 (pcDNA-3.1–3×HA-ORF047) (Orf virus (strain ORFV/QH01/2010)). Kind of assay: co-IP; HEK293T co-transfected with 3×HA-ORF047 and a 3×Flag-tagged host protein; NP-40 lysis buffer, antibody-coated magnetic beads, 4 °C; blots with anti-HA and anti-Flag (methods and legend: anti-FLAG beads; results: HA mAb coated beads).

The values that follow come from article PMC7836158.

These are yes or no findings as the source states them, for the method shown. Binding seen in cells or lysates may run through a third protein. Binding can be weak; no strength is given. Where a sequence is shown, tags or fusion partners need not be part of it.

As to MEAALLVEKNLNQALLDLHGLASARGDPHICDFLENHFLDEEV (peptide, UniProt P18686 1-43) [3×Flag-tagged sheep ferritin light chain (pcDNA-3.1–3×Flag-FLC)], the binding result is given as “binds”.
